# Measurements reported in the supplement of paper PMC10338343.
# ± gives the standard deviation. This is a selection; strong and weak results do not stand in their true shares. Many entries were measured with a wide error.
# Test system: MILI (PIWIL2) piRISC loaded with piRNA #2 (26 nt)
# Assay: pre-steady-state target cleavage rate (min^-1); MIWI and MILI are mouse PIWI proteins and EfPiwi is from a freshwater sponge; tags in brackets are library labels; higher = faster piRNA-guided slicing of the target
# Settings: guide: piRNA #2 5'p-UUAGGUAACCCAGUAGAUCCAGAGGA; auxiliary factor: 500 nM mouse GTSF1
# In short: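 At 33 °C in HEPES–potassium acetate buffer, a transcribed, DNA-blocked target RNA library […] was exposed for 0–8 or 0–960 min to 1 nM active affinity-purified piRISC carrying a single synthetic guide, with or without 500 nM GTSF1 partner protein. Uncleaved targets were sequenced and normalised to depth and to weakly complementary targets. With three trials pooled and k3 capped at 0.0001 min^-1, a burst-and-steady-state fit produced the pre-steady-state cleavage rate.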
# 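Note: 1 nM active piRISC with 0.1 nM target library at 33 °C single turnover.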
row,Sequence,pre-steady-state target cleavage rate
1,CUUAAGGAGACCAUCUACUGGCAAACCUAA,0.000273 ± 0.022
2,CUUAAGGAGACCUAGUACUGGGUUACACUAA,0.000359 ± 0.02
3,CUUAAGGAGACCUACUACUGGGUUACCUAAA,0.00102 ± 0.009
4,CUUAAGGAGACGAACUACUGGGUUUCCUAA,0.000511 ± 0.012
5,CUUAAGGAGUGGAUCUACUGGGUUUCCUUA,0.00294 ± 0.0042
6,CUUAAGGAGAGGAUCUUACUGGGUUACCUAA,0.000677 ± 0.015
7,CUUAAGGAGACGAUCUACAGCGUUACCUAA,0.00233 ± 0.0059
8,CUUAAGGAGACGAUCUACUGGUUUACCUAA,0.00296 ± 0.0037
9,CUUAAGGAGACCUAGAUCUCGGUUACCUUA,0.000215 ± 0.044
10,CUUAAGGAGACCUAGAUGACCCAUACCUAU [g2:g7:cont:t1U],0.000123 ± 0.025
11,CUUAUCGUCAGGAUCUACUGGGUUACCUAA,0.03 ± 0.012
12,CUUAAGGAGAGGAUGUUCUGGGUUACCUAA,0.000172 ± 0.027
13,CUUAAGGUCUGGAUCAUGUGGGUUACCUAA,0.00248 ± 0.0041
14,CUUAAGGUCAGGAUCUACUGCGUUACCUAA,0.00479 ± 0.0061
15,CUUAAGGAGACCUAGAUGAGGGUUACCCAA,0.000381 ± 0.021
16,CUUAAGGAGAGGAUCUACUGGUUACCUAA,0.000785 ± 0.013
17,CUUAAGGAGACCAUUUACUGGGUUACCUAA,0.00156 ± 0.0053
18,CUUAAGCUCUGGAUCUACUGGGUUUGGAUA [g7:g24:cont:t1A],0.00313 ± 0.0059
19,CUUAAGGAGAGGAUCUAACUGGGUUACCUAA,0.000244 ± 0.02
20,CUUAUCCUCAGGAUCUACUGGCUUACCUAA,0.000901 ± 0.015
21,CUUAAGCUCUGGAUCUACUCGGUUUCCUAA,0.000518 ± 0.012
22,CUUAAGGAGAGGAUCUACUGUGUUACCUAA,0.00374 ± 0.0068
23,CUUAAGGAGACCUUCUACUGGGUUACCUUA,0.000718 ± 0.0097
24,CUUAAGGAGAGGAUCUACUGGGUUACCGAA,0.00169 ± 0.01

row,Sequence,pre-steady-state target cleavage rate
1,CUUAAGGAGACCUUCUUCUGGGUUACCAAA,0.000613 ± 0.015
2,CUUAAGGAGUGGAACUACUCGGUUACCUAA,0.000595 ± 0.023
3,CUUAAGGAGACCUUCUACGGGGUUACCUAA,0.00125 ± 0.0078
4,CUUAAGGAGACCUACUUCUGGGUUACCAAA,0.00034 ± 0.02
5,CUUAAGGAGACCAUUCUACUGGGUUACCUAA,0.00137 ± 0.0065
6,CUUAAGGAGACGAUAUACUGGGUUACCUAA,0.00131 ± 0.0056
7,CUUAAGGAGACCUUCUACUCGGUUACCUAA,0.000281 ± 0.0094
8,CUUAAGGAGACCAUCUACUCGGUUAGCUAA,0.000319 ± 0.017
9,CUUAACCUCUGGAUUCUACUGGGUUACCUAA,0.273 ± 0.093
10,CUUAAGGAGACCUACAACUGGGUUACCUUA,0.00017 ± 0.047
11,CUUAAGGAGACCUACUACUGGGUCACCUAA,0.000369 ± 0.029
12,CUUAAGGAGAGGAUGUACUGGGUUUCCUAA,0.0021 ± 0.0055
13,CUUAAGGAGUGGAUGUACUGGGUUUCCUAA,0.00756 ± 0.0079
14,CUUAUGCUCUGGAUCUACUGGCUUACCUAA,0.00179 ± 0.0037
15,CUUAAGGAGACCUAGAUGACGGUAACCUUA,0.000262 ± 0.025
16,CUUAAGGAGACCUUCUACGUGGGUUACCUAA,0.000676 ± 0.018
17,CUUAAGGACUGGAGUCUACUGGGUUACCUAA,0.00644 ± 0.0073
18,CUUAAGCUCUGGAUCUACUGGCUUUCCUAA,0.00054 ± 0.014
19,CUUAAGCUCUGGUUCUACUGGGUUUCCUAA,0.219 ± 0.085
20,CUUAAGGAGACCUUCUACUGGGUACCUAA,0.000343 ± 0.017
21,CUUAAGGACUGGAUCUACUGGGUUACAUAA,0.0044 ± 0.0074
22,CUUAAGGAGUGGAUCUACUGGGAAUCCUAA,0.00062 ± 0.014
23,CUUAUCCUCUGGAUGUACUGGCUUACCUAA,0.00127 ± 0.015
24,CUUAAGGAGACCUAGUACUGGGUCUACCUAA,0.000503 ± 0.023

# A portion taken from the entries so far:
row,Sequence,pre-steady-state target cleavage rate
3,CUUAAGGAGACCUUCUACGGGGUUACCUAA,0.00125 ± 0.0078
4,CUUAAGGAGACCUACUUCUGGGUUACCAAA,0.00034 ± 0.02
5,CUUAAGGAGACCAUUCUACUGGGUUACCUAA,0.00137 ± 0.0065
6,CUUAAGGAGACGAUAUACUGGGUUACCUAA,0.00131 ± 0.0056
7,CUUAAGGAGACCUUCUACUCGGUUACCUAA,0.000281 ± 0.0094
8,CUUAAGGAGACCAUCUACUCGGUUAGCUAA,0.000319 ± 0.017

# More results.

row,Sequence,pre-steady-state target cleavage rate
1,CUUAAGGUCUGGAUGUACUGGGUUACCAAA,0.00659 ± 0.0066
2,CUUAAGGACUGGUUCUACUCGGUUACCUAA,0.00102 ± 0.018
3,CUUAAGGUGACGAUCUACUGGGUUACCUAA,0.00259 ± 0.0055
4,CUUAAGGAGACCUUCUACUGGGCUUACCUAA,0.000731 ± 0.016
5,CUUAAGGACUGGAUCUACCUGGGUUACCUAA,0.000186 ± 0.06
6,CUUAACCUCUGGAGUCUACUGGGUUACCUAA,0.135 ± 0.031
7,CUUAAGGAGAGGAUCUACUGGUGUUACCUAA,0.00103 ± 0.011
8,CUUAAGGACAGGUUCUACUGGGUUACCUAA,0.00207 ± 0.012
9,CUUAAGGAGACCUUCUACUGGGUAACCAAA,0.000559 ± 0.02
10,CUUAUCCUCUGGAUCUAGUGGGUUUCCUAA,0.055 ± 0.016
11,CUUAAGGAGACGAUCAACUGGGUAACCUAA,0.000808 ± 0.012
12,CUUAAGGAGAGGAUCUACUGGCUUACCUAA,0.000161 ± 0.045
13,CUUAAGGAGACGAUCUACUGGGAUUCCUAA,0.000958 ± 0.0076
14,CUUAAGGAGACCUACGACUGGGUUACCUAA,0.00024 ± 0.027
15,CUUAAGGACAGGAUCAACUGGGUUACCUAA,0.00526 ± 0.0056
16,CUUAAGGAGUGGAUGCUACUGGGUUACCUAA,0.00269 ± 0.0066
17,CUUAAGGUCUGGAUCUACUGCGUUACGUAA,0.000905 ± 0.0099
18,CUUAAGGAGACCUAGUACUGGGUUACGUAA,0.000228 ± 0.034
19,CUUAACCUGUGGAUCUACUGGCUUACCUAA,0.000552 ± 0.022
20,CUUAAGGAGAGGAACUACUGGCUUACCUAA,0.000198 ± 0.043
21,CUUAAGGAGACCAUCUUCUCGGUUACCUAA,0.000779 ± 0.011
22,CUUAAGGAGACCUUCUACUUGGGUUACCUAA,0.00106 ± 0.0069
23,CUUAAGGAGACCAGCUACUGGGUUACCUAA,0.000916 ± 0.011
24,CUUAAGCUCUGGAUGUACUGGCUUACCUAA,0.00141 ± 0.0077
